Test system: rat forebrain astrocytes in primary culture
Assay: Astrocyte proliferation assay ([3H]-thymidine incorporation normalized to [35S]-methionine)
Format: cell-based
Experimental: Primary cultures of astrocytes were prepared from the forebrains of 4-5 day old neonatal rats. After decapitation and removal of the forebrains from the skull, the meninges were carefully peeled off, and forebrain tissue was triturated in sterile phosphate buffered saline (PBS) using firepolished pipettes. The resulting suspension of tissue fragments was incubated in Hank's balanced salt solution (Gibco BRL) with 2.5 mg/ml trypsin, 1 mM EDTA and 0.1 mg/ml DNase (Boehringer) at 37° C. for 15 minutes. […] The pellet was resuspended in serum free medium (SFM) consisting of Dulbecco's Modified Eagle Medium (D-MEM), 2 mM L-glutamine, 50 U/ml penicillin G sodium and 50 μg/ml streptomycin sulfate (all from Gibco BRL) supplemented by 10% (vol/vol) fetal bovine serum (FBS). The cells were transferred to a standard 100 mm tissue culture dish (Falcon) and incubated at 37° C. for 1-2 hours. […]
After cell attachment, the culture medium was exchanged for SFM. […] Counts were solubilized overnight by adding 100 μl 1 N KOH to each well, neutralized with 100 μl 1 N HCl, transferred to liquid scintillation vials and counted in 3 ml of Beckman Ready Safe liquid scintillation cocktail on a Packard 1600 TR counter. […] In this paper, proliferation is expressed as [^3 H]-thymidine incorporation normalized to [35]-methionine incorporation and calculated as [^3 H] dpm/ [35] dpm.

B1: N-CAM: neural cell adhesion molecule purified from early postnatal rat brains by affinity chromatography, mainly polysialylated embryonic form (protein, UniProt P13596 20-858, looked up)
Neural cell adhesion molecule …: LQVDIVPSQGEISVGESKFFLCQVAGDAKDKDISWFSPNGEKLSPNQQRISVVWNDDDSSTLTIYNANIDDAGIYKCVVTAEDGTQSEATVNVKIFQKLMFKNAPTPQEFKEGEDAVIVCDVVSSLPPTIIWKHKGRDVILKKDVRFIVLSNNYLQIRGIKKTDEGTYRCEGRILARGEINFKDIQVIVNVPPTVQARQSIVNATANLGQSVTLVCDADGFPEPTMSWTKDGEPIENEEEDDEKHIFSDDSSELTIRNVDKNDEAEYVCIAENKAGEQDASIHLKVFAKPKITYVENQTAMELEEQVTLTCEASGDPIPSITWRTSTRNISSEEKASWTRPEKQETLDGHMVVRSHARVSSLTLKSIQYTDAGEYICTASNTIGQDSQSMYLEVQYAPKLQGPVAVYTWEGNQVNITCEVFAYPSATISWFRDGQLLPSSNYSNIKIYNTPSASYLEVTPDSENDFGNYNCTAVNRIGQESLEFILVQADTPSSPSIDRVEPYSSTAQVQFDEPEATGGVPILKYKAEWKSLGEEAWHSKWYDAKEANMEGIVTIMGLKPETRYAVRLAALNGKGLGEISAATEFKTQPVREPSAPKLEGQMGEDGNSIKVNLIKQDDGGSPIRHYLVKYRALASEWKPEIRLPSGSDHVMLKSLDWNAEYEVYVVAENQQGKSKAAHFVFRTSAQPTAIPANGSPTAGLSTGAIVGILIVIFVLLLVVMDITCYFLNKCGLLMCIAVNLCGKAGPGAKGKDMEEGKAAFSKDESKEPIVEVRTEEERTPNHDGGKHTEPNETTPLTEPEKGPVETKSEPQESEAKPAPTEVKTVPNEATQTKENESKA
modifications: polysialylated embryonic form
cell morphology (N-CAM 10 μg/ml): somewhat rounded appearance | cell morphology (N-CAM ≤2 μg/ml): no gross changes in cell morphology
